# Patent US20110152500A1
# Amino acid sequences for entries named in this document (tags omitted). A change or cut given only in a name is not applied to a line headed by its entry. Chains listed by the source or under a name are the forms on record and can include a tag or linker. Residues count along the entry.
# UniProt P02768, residues 25-609: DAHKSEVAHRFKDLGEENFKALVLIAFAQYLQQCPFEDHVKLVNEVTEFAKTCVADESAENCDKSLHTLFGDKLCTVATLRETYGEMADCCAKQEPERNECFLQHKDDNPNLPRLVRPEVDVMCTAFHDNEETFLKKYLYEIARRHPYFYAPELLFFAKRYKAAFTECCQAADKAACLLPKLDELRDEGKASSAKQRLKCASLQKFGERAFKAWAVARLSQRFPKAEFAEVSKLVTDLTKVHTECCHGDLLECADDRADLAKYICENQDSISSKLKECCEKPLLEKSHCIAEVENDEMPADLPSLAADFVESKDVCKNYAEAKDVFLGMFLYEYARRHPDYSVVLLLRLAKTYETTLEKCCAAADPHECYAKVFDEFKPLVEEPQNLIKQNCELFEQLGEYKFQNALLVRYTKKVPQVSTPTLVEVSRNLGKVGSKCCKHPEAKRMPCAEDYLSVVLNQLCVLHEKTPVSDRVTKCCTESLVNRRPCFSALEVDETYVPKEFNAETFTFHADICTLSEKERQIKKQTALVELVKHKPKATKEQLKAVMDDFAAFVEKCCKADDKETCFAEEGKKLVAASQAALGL
# UniProt Q99836: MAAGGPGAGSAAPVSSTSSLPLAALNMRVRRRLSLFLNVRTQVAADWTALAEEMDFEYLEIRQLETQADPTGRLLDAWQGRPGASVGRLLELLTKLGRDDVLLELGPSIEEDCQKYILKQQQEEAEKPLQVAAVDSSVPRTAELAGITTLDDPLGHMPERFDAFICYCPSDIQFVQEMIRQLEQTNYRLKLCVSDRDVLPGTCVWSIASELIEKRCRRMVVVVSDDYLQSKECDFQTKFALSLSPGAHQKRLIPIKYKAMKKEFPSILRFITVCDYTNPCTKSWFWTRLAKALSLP
# VEGF121 (P15692, form named): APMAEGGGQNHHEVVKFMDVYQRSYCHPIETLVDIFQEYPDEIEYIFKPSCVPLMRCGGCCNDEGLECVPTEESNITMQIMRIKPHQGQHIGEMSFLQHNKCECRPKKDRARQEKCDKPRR
# No constants are given. Whether binding was seen depends on the method and setting. Some results given as binding are weak or reduced against the parent protein; the word gives no strength.
# Columns and labels:
# [1] = target: Human serum albumin (human) (UniProt P02768); assay: ELISA of recombinant phage on coated proteins, anti-M13-HRP
# [2] = target: Human serum albumin (human) (UniProt P02768); assay: phage ELISA, clones with higher absorbance than on BSA, sequenced
# [3] = target: Human serum albumin (human) (UniProt P02768); assay: phage ELISA: recombinant phage on wells coated with 5 µg/ml protein, HRP anti-M13 antibody, TMB, absorbance at 450 nm
# Human MyD88 (human) [4] = target: Human MyD88 (human) (UniProt Q99836); assay: ELISA of recombinant phage on coated proteins, anti-M13-HRP
# Human MyD88 (human) [5] = target: Human MyD88 (human) (UniProt Q99836); assay: phage ELISA, clones with higher absorbance than on BSA, sequenced
# Human MyD88 (human) [6] = target: Human MyD88 (human) (UniProt Q99836); assay: phage ELISA: recombinant phage on wells coated with 5 µg/ml protein, HRP anti-M13 antibody, TMB, absorbance at 450 nm
# VEGF121 (human) = VEGF121 (human) (UniProt P15692); assay: phage ELISA, clones with higher absorbance than on BSA, sequenced
binder,measurement,setting,value
AASPYKGSWTWENGKWTWKGGWRMKM [Peptide 1 specific to HSA (bipodal-peptide binder)],binding,[1],binds
same,binding,[2],binds
same,binding,[3],binds
HSHAFYGSWTWENGKWTWKGNPGWWT [Peptide 1 specific to MyD88 (bipodal-peptide binder)],binding,Human MyD88 (human) [4],binds
same,binding,Human MyD88 (human) [5],binds
same,binding,Human MyD88 (human) [6],binds
YGAYPWGSWTWENGKWTWKGWRVSRD [Peptide 4 specific to VEGF (bipodal-peptide binder)],binding,[2],binds
same,binding,VEGF121 (human),binds
SANSLYGSWTWENGKWTWKGTSRQRW [Peptide 2 specific to HSA (bipodal-peptide binder)],binding,[2],binds
YAHVYYGSWTWENGKWTWKGHRVTQT [Peptide 3 specific to HSA (bipodal-peptide binder)],binding,[2],binds
YAHFGWGSWTWENGKWTWKGTTDSQS [Peptide 5 specific to HSA (bipodal-peptide binder)],binding,[2],binds
ASTINFGSWTWENGKWTWKGYTRRWN [Peptide 2 specific to MyD88 (bipodal-peptide binder)],binding,Human MyD88 (human) [5],binds
